# According to the supplement of paper PMC12067093, “Discovery and optimisation of a covalent ligand for TRIM25 and its application to targeted protein ubiquitination” (Chemical Science, 2025):
# Sequences of proteins named here, by UniProt entry; tags and fusion partners are left off. A change or cut given only in a name is not applied to a line headed by its entry.
# UniProt O00154: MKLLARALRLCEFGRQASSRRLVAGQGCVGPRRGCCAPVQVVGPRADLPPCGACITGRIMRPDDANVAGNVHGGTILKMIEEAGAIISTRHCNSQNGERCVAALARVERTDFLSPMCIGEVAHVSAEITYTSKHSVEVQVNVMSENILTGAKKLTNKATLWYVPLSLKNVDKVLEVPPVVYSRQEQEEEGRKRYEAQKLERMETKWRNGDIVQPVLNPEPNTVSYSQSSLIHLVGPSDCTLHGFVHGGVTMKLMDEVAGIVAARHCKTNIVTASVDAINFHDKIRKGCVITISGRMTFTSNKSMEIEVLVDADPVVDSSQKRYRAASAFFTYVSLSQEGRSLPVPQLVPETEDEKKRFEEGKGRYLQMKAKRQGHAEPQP
# UniProt O60266: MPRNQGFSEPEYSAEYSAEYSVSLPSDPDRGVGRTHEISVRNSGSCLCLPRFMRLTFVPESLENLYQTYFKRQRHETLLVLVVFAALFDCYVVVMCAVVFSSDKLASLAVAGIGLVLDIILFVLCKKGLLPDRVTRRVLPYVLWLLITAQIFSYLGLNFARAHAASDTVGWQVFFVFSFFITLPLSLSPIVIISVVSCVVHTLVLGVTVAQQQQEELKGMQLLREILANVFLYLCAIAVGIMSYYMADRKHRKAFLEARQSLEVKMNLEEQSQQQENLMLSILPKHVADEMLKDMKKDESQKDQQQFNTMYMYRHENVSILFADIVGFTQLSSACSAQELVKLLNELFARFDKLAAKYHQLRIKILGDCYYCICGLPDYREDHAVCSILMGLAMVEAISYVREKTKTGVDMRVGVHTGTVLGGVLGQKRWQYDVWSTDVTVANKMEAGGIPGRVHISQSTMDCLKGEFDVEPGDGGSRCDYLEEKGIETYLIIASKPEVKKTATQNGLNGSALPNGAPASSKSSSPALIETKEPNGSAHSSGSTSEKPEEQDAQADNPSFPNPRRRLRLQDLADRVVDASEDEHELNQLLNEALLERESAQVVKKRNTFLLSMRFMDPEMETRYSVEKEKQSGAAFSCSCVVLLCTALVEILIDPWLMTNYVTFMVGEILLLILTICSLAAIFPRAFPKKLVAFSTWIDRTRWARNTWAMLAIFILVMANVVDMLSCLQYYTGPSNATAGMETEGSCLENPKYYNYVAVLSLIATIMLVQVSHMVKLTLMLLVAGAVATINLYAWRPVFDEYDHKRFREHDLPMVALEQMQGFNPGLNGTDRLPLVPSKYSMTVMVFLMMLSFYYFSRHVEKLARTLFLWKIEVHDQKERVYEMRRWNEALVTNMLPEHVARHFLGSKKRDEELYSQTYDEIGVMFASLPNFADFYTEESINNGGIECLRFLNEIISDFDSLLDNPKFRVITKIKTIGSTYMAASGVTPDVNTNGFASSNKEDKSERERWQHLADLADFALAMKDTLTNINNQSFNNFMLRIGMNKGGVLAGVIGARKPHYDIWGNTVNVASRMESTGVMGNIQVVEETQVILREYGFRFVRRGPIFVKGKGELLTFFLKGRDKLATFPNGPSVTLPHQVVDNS
# UniProt Q96SZ5, whole entry, looked up: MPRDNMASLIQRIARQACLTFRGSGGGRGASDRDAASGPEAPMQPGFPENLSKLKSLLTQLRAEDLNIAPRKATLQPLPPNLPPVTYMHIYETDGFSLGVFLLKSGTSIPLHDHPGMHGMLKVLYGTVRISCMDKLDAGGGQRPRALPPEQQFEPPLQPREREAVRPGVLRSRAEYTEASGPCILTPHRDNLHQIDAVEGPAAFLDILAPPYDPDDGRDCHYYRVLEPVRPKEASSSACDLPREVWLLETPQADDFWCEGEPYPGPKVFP
# UniProt P33121: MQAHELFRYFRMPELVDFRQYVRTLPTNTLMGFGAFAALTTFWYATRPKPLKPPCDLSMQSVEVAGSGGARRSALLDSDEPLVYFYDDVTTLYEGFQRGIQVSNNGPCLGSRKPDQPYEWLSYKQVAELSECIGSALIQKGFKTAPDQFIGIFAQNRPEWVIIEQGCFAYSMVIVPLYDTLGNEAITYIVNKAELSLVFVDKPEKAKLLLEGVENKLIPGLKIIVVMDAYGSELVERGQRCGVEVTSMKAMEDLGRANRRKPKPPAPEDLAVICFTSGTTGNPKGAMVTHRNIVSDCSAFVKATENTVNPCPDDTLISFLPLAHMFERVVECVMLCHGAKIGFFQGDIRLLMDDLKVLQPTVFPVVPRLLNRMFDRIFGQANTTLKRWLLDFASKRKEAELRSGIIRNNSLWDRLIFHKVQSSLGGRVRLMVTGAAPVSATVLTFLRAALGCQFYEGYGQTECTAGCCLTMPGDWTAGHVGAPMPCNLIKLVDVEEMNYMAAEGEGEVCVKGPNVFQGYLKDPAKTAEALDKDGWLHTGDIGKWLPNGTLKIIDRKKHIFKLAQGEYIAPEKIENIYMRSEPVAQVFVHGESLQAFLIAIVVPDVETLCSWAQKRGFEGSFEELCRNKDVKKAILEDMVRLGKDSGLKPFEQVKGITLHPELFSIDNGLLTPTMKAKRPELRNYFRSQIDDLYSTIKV
# UniProt O14672: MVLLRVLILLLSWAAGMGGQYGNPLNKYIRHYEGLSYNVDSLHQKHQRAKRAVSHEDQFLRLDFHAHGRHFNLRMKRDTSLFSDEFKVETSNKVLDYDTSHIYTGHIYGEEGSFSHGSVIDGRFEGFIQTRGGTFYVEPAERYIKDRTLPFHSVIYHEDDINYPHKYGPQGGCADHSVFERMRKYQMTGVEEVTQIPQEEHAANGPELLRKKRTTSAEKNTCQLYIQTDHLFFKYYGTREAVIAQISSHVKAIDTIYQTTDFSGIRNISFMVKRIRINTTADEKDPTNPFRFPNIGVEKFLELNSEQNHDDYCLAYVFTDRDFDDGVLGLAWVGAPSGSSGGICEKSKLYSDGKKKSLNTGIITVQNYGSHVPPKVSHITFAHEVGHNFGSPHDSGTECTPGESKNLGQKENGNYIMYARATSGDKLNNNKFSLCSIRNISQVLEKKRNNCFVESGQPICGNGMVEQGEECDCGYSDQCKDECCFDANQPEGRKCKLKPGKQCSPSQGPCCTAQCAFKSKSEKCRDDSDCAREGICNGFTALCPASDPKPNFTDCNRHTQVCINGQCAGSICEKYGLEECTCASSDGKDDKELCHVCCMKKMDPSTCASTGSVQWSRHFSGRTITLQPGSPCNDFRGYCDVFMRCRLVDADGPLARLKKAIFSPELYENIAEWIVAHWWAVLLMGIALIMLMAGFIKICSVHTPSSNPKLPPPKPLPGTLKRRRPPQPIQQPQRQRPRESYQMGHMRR
# UniProt O60488: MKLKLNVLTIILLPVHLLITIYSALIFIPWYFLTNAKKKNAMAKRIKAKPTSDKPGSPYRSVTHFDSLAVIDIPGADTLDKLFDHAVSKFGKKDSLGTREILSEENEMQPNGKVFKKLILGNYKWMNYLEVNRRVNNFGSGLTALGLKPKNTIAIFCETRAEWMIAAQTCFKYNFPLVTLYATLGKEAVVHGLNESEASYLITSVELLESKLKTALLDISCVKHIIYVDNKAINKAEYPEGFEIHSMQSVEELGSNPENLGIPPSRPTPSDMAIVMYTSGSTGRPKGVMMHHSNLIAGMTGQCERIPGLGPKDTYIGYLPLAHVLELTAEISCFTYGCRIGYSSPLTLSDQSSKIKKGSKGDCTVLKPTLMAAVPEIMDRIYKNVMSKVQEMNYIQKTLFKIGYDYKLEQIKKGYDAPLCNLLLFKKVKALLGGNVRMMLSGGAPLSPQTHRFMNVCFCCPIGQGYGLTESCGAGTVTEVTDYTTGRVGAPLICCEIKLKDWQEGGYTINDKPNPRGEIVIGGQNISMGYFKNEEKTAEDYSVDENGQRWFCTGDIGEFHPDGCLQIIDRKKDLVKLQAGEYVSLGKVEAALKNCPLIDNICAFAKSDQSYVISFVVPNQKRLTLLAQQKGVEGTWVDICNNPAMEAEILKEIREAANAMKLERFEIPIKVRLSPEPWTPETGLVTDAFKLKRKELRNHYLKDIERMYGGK
# UniProt Q16186: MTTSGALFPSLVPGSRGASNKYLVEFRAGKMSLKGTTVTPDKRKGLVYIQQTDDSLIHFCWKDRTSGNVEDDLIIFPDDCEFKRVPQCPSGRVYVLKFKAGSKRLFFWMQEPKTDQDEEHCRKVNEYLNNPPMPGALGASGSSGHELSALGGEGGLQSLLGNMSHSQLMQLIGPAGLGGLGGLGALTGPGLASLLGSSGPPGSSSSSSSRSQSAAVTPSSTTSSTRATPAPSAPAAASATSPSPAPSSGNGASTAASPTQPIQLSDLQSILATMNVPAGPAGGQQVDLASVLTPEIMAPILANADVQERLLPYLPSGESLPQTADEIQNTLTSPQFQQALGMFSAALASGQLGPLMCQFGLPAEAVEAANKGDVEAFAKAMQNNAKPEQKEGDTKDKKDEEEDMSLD
# UniProt P35573: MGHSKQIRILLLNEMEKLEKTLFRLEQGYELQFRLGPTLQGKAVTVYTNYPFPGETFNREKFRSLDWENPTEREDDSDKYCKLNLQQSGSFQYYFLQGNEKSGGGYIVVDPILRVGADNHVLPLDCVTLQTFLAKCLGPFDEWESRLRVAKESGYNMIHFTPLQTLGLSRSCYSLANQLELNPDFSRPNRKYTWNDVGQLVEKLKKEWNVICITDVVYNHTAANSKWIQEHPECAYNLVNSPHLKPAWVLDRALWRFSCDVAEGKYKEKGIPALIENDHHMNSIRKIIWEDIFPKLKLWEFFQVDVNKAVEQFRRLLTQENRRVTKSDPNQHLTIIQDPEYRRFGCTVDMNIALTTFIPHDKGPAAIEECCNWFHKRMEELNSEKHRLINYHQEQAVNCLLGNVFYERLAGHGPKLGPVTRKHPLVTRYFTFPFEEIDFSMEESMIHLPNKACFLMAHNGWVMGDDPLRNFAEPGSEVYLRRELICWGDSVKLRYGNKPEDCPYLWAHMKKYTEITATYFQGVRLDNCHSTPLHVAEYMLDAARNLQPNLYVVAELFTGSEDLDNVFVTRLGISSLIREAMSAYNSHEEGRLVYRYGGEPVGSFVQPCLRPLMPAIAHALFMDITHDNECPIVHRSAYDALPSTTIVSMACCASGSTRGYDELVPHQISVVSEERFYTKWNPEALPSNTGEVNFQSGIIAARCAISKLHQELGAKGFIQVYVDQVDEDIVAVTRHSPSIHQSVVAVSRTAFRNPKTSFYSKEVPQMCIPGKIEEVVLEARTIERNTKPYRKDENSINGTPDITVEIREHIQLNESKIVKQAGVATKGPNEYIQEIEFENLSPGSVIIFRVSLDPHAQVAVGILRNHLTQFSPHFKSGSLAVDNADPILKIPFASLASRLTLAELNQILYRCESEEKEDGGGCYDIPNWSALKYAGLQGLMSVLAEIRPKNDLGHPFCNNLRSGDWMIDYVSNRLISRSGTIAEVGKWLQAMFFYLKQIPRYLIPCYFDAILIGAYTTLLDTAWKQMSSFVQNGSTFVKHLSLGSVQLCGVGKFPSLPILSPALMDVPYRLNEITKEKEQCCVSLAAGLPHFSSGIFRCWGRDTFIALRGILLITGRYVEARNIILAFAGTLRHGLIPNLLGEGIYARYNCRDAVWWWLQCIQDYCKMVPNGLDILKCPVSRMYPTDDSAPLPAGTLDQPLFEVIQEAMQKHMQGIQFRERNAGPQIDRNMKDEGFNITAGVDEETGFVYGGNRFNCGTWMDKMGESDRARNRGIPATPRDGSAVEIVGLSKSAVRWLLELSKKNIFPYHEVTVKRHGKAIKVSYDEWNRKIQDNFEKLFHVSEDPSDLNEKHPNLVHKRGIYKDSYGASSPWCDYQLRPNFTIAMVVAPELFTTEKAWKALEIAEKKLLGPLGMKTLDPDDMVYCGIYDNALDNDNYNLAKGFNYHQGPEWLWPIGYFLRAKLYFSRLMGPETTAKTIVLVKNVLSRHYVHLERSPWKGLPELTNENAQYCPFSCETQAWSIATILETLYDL
# UniProt Q9H6R3: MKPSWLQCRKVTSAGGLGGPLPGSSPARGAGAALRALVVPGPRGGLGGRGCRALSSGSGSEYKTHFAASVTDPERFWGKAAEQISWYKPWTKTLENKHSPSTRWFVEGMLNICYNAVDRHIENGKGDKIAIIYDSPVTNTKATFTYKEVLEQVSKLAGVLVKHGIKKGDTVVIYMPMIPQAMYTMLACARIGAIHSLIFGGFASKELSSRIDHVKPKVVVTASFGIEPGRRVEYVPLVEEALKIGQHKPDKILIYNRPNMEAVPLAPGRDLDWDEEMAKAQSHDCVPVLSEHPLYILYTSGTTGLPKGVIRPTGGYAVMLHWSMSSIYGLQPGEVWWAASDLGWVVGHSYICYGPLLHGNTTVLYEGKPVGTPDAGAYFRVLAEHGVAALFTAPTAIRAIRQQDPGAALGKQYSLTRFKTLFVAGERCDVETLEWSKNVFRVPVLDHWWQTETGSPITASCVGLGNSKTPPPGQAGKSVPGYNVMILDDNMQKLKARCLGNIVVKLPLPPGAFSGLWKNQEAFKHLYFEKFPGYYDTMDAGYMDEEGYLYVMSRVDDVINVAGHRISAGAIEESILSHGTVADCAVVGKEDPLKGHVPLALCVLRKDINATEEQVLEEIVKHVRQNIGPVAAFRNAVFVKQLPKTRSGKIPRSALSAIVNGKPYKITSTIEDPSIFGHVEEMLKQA
# This is one part of the list.
# Compound: CC1Cc2ccccc2N1C(=O)C1CCCN(C1)C(=O)CCl (mixture of isomers) [TRIM25 ligand 11 (diastereomer mixture)]
# Experiment: probe-labelled cysteine peptide fold change vs DMSO (competition) (log2 fold change); higher = less target engagement (more negative = stronger competition)
# Conditions: THP-1, incubation time: 4 h
# 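Also: competitive chemoproteomic profiling in live THP-1 cells with an iodoacetamide desthiobiotin (IA-DTB) probe, comparing probe-labelled peptide intensities in compound-treated cells against DMSO-treated controls.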
Target,probe-labelled cysteine peptide fold change (10 µM),probe-labelled cysteine peptide fold change (50 µM)
ACOT7_O00154_92_HCNSQNGER (UniProt O00154),0.0791,-0.075
AGA_P20933_64_ALASGGSALDAVESGCAMCER (UniProt P20933),-0.018,0.0586
ADCY3_O60266_479_CDYLEEK (UniProt O60266),-0.0152,-0.126
ACSF2_Q96CM8_553_MGEEICACIR (UniProt Q96CM8),-0.0479,-0.134
ADK_P55263_336_PLTECIR (UniProt P55263),0.109,0.399
AFTPH_Q6ULP2_583_DSCSWAAFGDQQATESHHR (UniProt Q6ULP2),0.0958,-0.037
ADK_P55263_353_TGCTFPEKPDFH (UniProt P55263),0.0948,0.0385
ADD2_P35612_177_GVSCSEVTASSLIK (UniProt P35612),-0.0274,-0.0547
AFG3L2_Q9Y4W6_402_KNAPCILFIDEIDAVGR (UniProt Q9Y4W6),-0.215,-0.188
ACOT9_Q9Y305_299_SLEICHPQER (UniProt Q9Y305),0.108,0.0885
ACTR8_Q9H981_351_ETFCHLDQDISGLQDHEFQIR (UniProt Q9H981),0.282,0.258
ACTN4_O43707_793_ACLISLGYDVENDR (UniProt O43707),0.207,0.213
ACTN1_P12814_774_ACLISLGYDIGNDPQGEAEFAR (UniProt P12814),0.388,0.22
ACP2_P11117_345_APWPLSLPGCPHR (UniProt P11117),-0.172,0.0455
AFF1_P51825_892_EADTCGQDPPK (UniProt P51825),-0.1,-0.0158
AGK_Q53H12_408_LQFFCDPR (UniProt Q53H12),-0.282,0.135
ADO_Q96SZ5_183_AEYTEASGPCILTPHR (UniProt Q96SZ5),-0.0417,0.00492
ACSL1_P33121_274_RKPKPPAPEDLAVICFTSGTTGNPK (UniProt P33121),-0.0396,0.0816
ADNP_Q9H2P0_31_ILSDIGLEYCK (UniProt Q9H2P0),-0.242,-0.102
ADAR_P55265_649_FQYCVAVGAQTFPSVSAPSK (UniProt P55265),0.0711,-0.146
ACTN4_O43707_879_ELPPDQAEYCIAR (UniProt O43707),-0.0365,-0.144
ADSL_P30566_173_CCLWIQDLCMDLQNLK (UniProt P30566),0.303,0.139

# Looked up above.
# probe-labelled cysteine peptide fold change (10 µM) with ACTR8_Q9H981_351_ETFCHLDQDISGLQDHEFQIR (UniProt Q9H981) is entered as 0.282
# probe-labelled cysteine peptide fold change (10 µM) with ADK_P55263_353_TGCTFPEKPDFH (UniProt P55263) is entered as 0.0948
# probe-labelled cysteine peptide fold change (50 µM) with ADCY3_O60266_479_CDYLEEK (UniProt O60266) is entered as -0.126
# probe-labelled cysteine peptide fold change (50 µM) with ADNP_Q9H2P0_31_ILSDIGLEYCK (UniProt Q9H2P0) is entered as -0.102

# Remaining list, next part.

Target,probe-labelled cysteine peptide fold change (10 µM),probe-labelled cysteine peptide fold change (50 µM)
ACTR8_Q9H981_179_WTNTSHHPEYLVGEEALYVNPLDCYNIHWPIR (UniProt Q9H981),0.349,0.0831
ADAM10_O14672_607_DDKELCHVCCMKKMDPSTCASTGSVQWSR (UniProt O14672),-0.0506,0.00492
ADD1_P35611_430_YSDVEVPASVTGYSFASDGDSGTCSPLR (UniProt P35611),-0.132,-0.0653
ACSL4_O60488_494_VGAPLICCEIK (UniProt O60488),0.0302,0.00888
ADCY9_O60503_1333_AIEKDDCDETGIEEANELTK (UniProt O60503),-0.326,-0.107
ACSL4_O60488_595_NCPLIDNICAFAK (UniProt O60488),-0.0982,-0.212
ADAM9_Q13443_575_LQCENVQEIPVFGIVPAIIQTPSR (UniProt Q13443),0.334,-0.0231
ADGRL2_O95490_160_AGAWCK (UniProt O95490),0.0737,0.129
ADAM10_O14672_582_YGLEECTCASSDGKDDK (UniProt O14672),0.0616,0.108
ADAR_P55265_1036_TMSCSDK (UniProt P55265),0.0166,-0.00474
ADH5_P11766_240_EFGATECINPQDFSK (UniProt P11766),-0.0174,-0.0498
ADAM10_O14672_173_YGPQGGCADHSVFER (UniProt O14672),0.0909,0.0721
ACTL6A_O96019_206_SPLAGDFITMQCR (UniProt O96019),0.0233,0.201
ACOT8_O14734_275_ADHWMLYECESPWAGGSR (UniProt O14734),-0.0955,0.0266
ADRM1_Q16186_88_VPQCPSGR (UniProt Q16186),-0.171,-0.0547
ACOT7_O00154_288_GCVITISGR (UniProt O00154),-0.0136,0.137
ADRM1_Q16186_121_TDQDEEHCRK (UniProt Q16186),-0.0322,0.00409
AGL_P35573_212_EWNVICITDVVYNHTAANSK (UniProt P35573),0.0724,0.114
AGA_P20933_163_NCQPNYWR (UniProt P20933),-0.0466,-0.0578
ADAR_P55265_519_NPISGLLEYAQFASQTCEFNMIEQSGPPHEPR (UniProt P55265),-0.216,-0.0215
ADAM15_Q13444_179_IQDLHLPGHTCALSWR (UniProt Q13444),-0.0675,0.0443
ACP2_P11117_159_FPLGPCPR (UniProt P11117),-0.0242,-0.0275

Target,probe-labelled cysteine peptide fold change (10 µM),probe-labelled cysteine peptide fold change (50 µM)
AFG1L_Q8WV93_72_ALAVCHGPLDHYDFLIK (UniProt Q8WV93),0.129,0.114
ACTN1_P12814_476+480_CQKICDQWDNLGALTQKRR (UniProt P12814),0.175,-0.0015
ACTR3_P61158_408_DYEEIGPSICR (UniProt P61158),-0.00209,0.067
ADPRH_P54922_90_HYQDCMEDMDGR (UniProt P54922),-0.0279,-0.187
ACSL4_O60488_170_AEWMIAAQTCFK (UniProt O60488),0.155,0.303
ADCY9_O60503_654_SEAGAEGGAPQNGCQDEHK (UniProt O60503),-0.0519,-0.0438
ADIPOR1_Q96A54_54_AEEEQTCPVPQEEEEEVR (UniProt Q96A54),0.147,-0.188
ADO_Q96SZ5_183_SRAEYTEASGPCILTPHR (UniProt Q96SZ5),0.000339,0.423
ACSL1_P33121_132_QVAELSECIGSALIQK (UniProt P33121),-0.0785,0.156
ACTN4_O43707_499_ICDQWDALGSLTHSRR (UniProt O43707),0.0836,-0.0109
AFF1_P51825_355_MPSQSVEQTYSNEVHCVEEILK (UniProt P51825),-0.0231,-0.406
ACTR10_Q9NZ32_215_TCFVSDLKR (UniProt Q9NZ32),-0.113,0.00991
ADAR_P55265_125_GVDCLSSHFQELSIYQDQEQR (UniProt P55265),-0.09,-0.0943
ACTR2_P61160_11_KVVVCDNGTGFVK (UniProt P61160),-0.0914,-0.197
ACSS3_Q9H6R3_285_AQSHDCVPVLSEHPLYILYTSGTTGLPK (UniProt Q9H6R3),0.0567,0.122
ADA2_Q9NZK5_408_DIPIEVCPISNQVLK (UniProt Q9NZK5),0.0772,-0.158
ADGRA2_Q96PE1_1147_LTNLQLAQSQVCEAGAAAGGEGEPEPAGTR (UniProt Q96PE1),0.0413,-0.116
ADGRL3_Q9HAR2_135_VFLCPGLLK (UniProt Q9HAR2),0.15,0.316
ADD2_P35612_224_CIIHLHTPATAAVSAMK (UniProt P35612),-0.0204,-0.168
ADSL_P30566_266_ICTDIR (UniProt P30566),0.199,0.262
ADAR_P55265_490_CSPYKK (UniProt P55265),-0.0154,-0.08
ADSS_P30520_58_VVDLLAQDADIVCR (UniProt P30520),-0.034,0.0558

Target,probe-labelled cysteine peptide fold change (10 µM),probe-labelled cysteine peptide fold change (50 µM)
ACTR3_P61158_408_KDYEEIGPSICR (UniProt P61158),-0.117,-0.152
ADAM10_O14672_222_NTCQLYIQTDHLFFK (UniProt O14672),0.1,0.164
ACTN1_P12814_476_CQKICDQWDNLGALTQKRR (UniProt P12814),0.0927,0.274
ACSF2_Q96CM8_254_QHLDQLQYNQQFLSCHDPINIQFTSGTTGSPK (UniProt Q96CM8),0.0011,-0.131
ADH5_P11766_174_VCLLGCGISTGYGAAVNTAK (UniProt P11766),0.191,0.172
ACTR8_Q9H981_179_WTNTSHHPEYLVGEEALYVNPLDCYNIHWPIRR (UniProt Q9H981),0.0339,-0.000448
ADNP_Q9H2P0_167_QADSVEQAVYYCK (UniProt Q9H2P0),0.182,0.139
ACSS3_Q9H6R3_602_GHVPLALCVLR (UniProt Q9H6R3),-0.0322,0.162
AFG3L2_Q9Y4W6_402_NAPCILFIDEIDAVGR (UniProt Q9Y4W6),0.16,0.129
ADPGK_Q9BRR6_470_EGISFHFTPVLVCKDPIR (UniProt Q9BRR6),-0.273,-0.117
ADCY7_P51828_382_VGIHSGNVLCGVIGLR (UniProt P51828),-0.00813,-0.0188
ACTR3_P61158_8+12_LPACVVDCGTGYTK (UniProt P61158),0.0365,-0.138
ADPRHL2_Q9NX46_132_CRDVFEPAR (UniProt Q9NX46),0.0406,-0.0411
ACP2_P11117_349_CPLQDFLR (UniProt P11117),-0.125,-0.079
AGL_P35573_172_SCYSLANQLELNPDFSRPNRK (UniProt P35573),0.0913,0.196
ACTR10_Q9NZ32_27_CGFAGETGPR (UniProt Q9NZ32),-0.0493,0.118
ADK_P55263_160_SLIANLAAANCYKK (UniProt P55263),-0.669,-0.408
ACTR3_P61158_12_LPACVVDCGTGYTK (UniProt P61158),-0.0727,-0.0621
AFG3L2_Q9Y4W6_313_DVAGCEEAK (UniProt Q9Y4W6),0.206,0.157
